According to PubChem BioAssay AID1445 (SRMLSC, 2008):
Out of some 220,000 compounds screened, about 910 (0.41%) were called active. Inconclusive means that the source gave no clear call. Such entries were picked first, then a sample of the others.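 How the source made its calls: active means primary inhibition above the hit cutoff, then over 50% inhibition at one or more dose response concentrations (cut at about 23% in these data, passing the limit was not always enough); inconclusive means conflicting primary data, or primary hits not chosen for dose response; inactive means low primary inhibition, or under 50% at every dose.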

By UniProt entry, the sequences of proteins in these tests, tags left out. Where a name states a change or a piece, a line headed by the entry shows the natural chain unless it says otherwise.
UniProt O96935: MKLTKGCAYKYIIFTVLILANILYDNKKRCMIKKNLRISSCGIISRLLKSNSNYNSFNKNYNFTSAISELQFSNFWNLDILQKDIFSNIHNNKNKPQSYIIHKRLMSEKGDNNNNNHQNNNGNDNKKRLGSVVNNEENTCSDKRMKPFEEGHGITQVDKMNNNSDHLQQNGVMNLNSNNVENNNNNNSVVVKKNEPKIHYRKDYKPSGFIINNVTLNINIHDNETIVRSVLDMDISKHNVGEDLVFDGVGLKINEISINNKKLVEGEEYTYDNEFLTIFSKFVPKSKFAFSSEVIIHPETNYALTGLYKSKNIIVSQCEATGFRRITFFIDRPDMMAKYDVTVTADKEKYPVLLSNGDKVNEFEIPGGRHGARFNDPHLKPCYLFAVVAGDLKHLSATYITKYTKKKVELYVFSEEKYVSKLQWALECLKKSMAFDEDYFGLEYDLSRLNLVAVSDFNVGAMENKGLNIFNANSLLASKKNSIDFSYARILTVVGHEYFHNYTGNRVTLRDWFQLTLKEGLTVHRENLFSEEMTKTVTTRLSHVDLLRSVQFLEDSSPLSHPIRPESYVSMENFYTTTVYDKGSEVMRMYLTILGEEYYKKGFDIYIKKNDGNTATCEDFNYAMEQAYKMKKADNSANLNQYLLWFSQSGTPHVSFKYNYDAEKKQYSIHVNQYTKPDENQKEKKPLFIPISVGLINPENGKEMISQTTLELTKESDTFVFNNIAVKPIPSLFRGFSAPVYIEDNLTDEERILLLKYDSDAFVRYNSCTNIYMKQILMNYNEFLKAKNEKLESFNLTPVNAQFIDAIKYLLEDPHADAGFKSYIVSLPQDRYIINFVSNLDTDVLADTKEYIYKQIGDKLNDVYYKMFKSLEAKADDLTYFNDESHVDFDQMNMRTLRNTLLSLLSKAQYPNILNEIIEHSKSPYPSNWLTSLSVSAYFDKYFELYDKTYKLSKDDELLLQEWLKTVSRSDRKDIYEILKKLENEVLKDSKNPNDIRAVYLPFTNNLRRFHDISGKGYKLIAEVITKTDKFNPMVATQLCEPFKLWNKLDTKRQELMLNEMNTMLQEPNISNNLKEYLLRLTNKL

target: Aminopeptidase N (Plasmodium falciparum (isolate 3D7)) (UniProt O96935); assay: P. falciparum M1AAP inhibitors, biochemical, fluorogenic H-Leu-NHMec substrate, 1536-well (AID 1445); conditions: recombinant M1AAP, H-Leu-NHMec fluorogenic kinetic assay; at 30 µM, active compounds read high unless noted;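 further: plate controls were DMSO full reaction for no effect and no enzyme background for full effect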

| Structure (SMILES) | inhibition |
| --- | --- |
| O=C1NC(=S)S/C1=C\c1ccc(SCc2ccco2)o1 | inconclusive: 31.8% |
| COc1cc2c(cc1OC)-c1cc(Nc3ccc4c(c3)OCCO4)nc(=O)n1CC2 | active: 24.9% |
| COc1ccc2cc3cc(C(=O)NCCN4CCN(Cc5ccccc5)CC4)oc3nc2c1 | inconclusive: 7.43% |
| O=C1S/C(=C\c2ccc(O)c([N+](=O)[O-])c2)C(=O)N1Cc1cccc([N+](=O)[O-])c1 | inconclusive: 27.9% |
| O=C(NC1CCCC1)C(c1ccccc1F)N(C(=O)c1ccco1)C1CCCC1 (stereo not given) | active: 25% |
| O=C(NC(Cc1ccccc1)c1nc2ccccc2[nH]1)C1CC(=O)N(c2ccc3c(c2)OCCO3)C1 (stereo not given) | active: 26% |
| CCCCOc1ccc2ccccc2c1C=O | inconclusive: 25% |
| CCOC(=O)Cc1nnc(NC(=O)CSc2nnc3c4ccccc4n(C)c3n2)s1 | inactive: 14% |
| COCCCNC(=O)Cn1nnc(-c2ccc(NC(=O)c3ccccc3F)cc2)n1 | inactive: 0.6% |
| O=C(/C=C\c1cccs1)N1CCN(Cc2ccc3c(c2)OCO3)CC1 | inconclusive: 23.4% |
| O=C(CN1CCOCC1)Nc1c(-c2ccccc2)c2cc(Br)ccc2[nH]c1=O | active: 28.2% |
| O=S(=O)(NC1=NCCCCC1)c1ccc2sc(NS(=O)(=O)c3ccc4ccccc4c3)nc2c1 | inconclusive: 23.6% |
| CC(=O)N1C(=O)/C(=C2\SC(=S)N(NC(=O)c3ccc(O)cc3)C2=O)c2ccccc21 | inconclusive: 28.4% |
| Cc1[nH]nc2c1C(c1cccc(O)c1)C1=C(CC(C)(C)CC1=O)N2 (stereo not given) | inconclusive: 18.4% |
| O=C(Nc1nnc(SCc2ccc(Cl)cc2Cl)s1)C1COc2ccccc2O1 (stereo not given) | inconclusive: 27.5% |
| CCCOc1ccc(Cc2nc(N)nc(N)n2)cc1 | inactive: -6.23% |
| CSc1nc(SCC(=O)O)c2sc3nc(-c4ccccc4)c4c(c3c2n1)CCC4 | inconclusive: 25% |
| CN1CCN(C(=O)CCNC(=O)Cn2ccc3ccccc3c2=O)CC1 | inactive: 2.23% |
| CC1(c2ccccn2)Nc2ccccc2-c2nc3ccccc3n21 (stereo not given) | inconclusive: 24.8% |
| NC(=O)c1c(NC(=O)c2cc3ccccc3o2)sc2c1CCC2 | inconclusive: 25.8% |
| Cc1cccc(C)c1NC(=O)/C(C#N)=C/c1cccs1 | inconclusive: 26.3% |
| COc1ccc(NC(=O)C2CCN(S(C)(=O)=O)CC2)cc1Cl | inactive: 4.6% |
| COCCn1c(SCC(=O)Nc2nnc(C)s2)nnc1-c1cc2ccccc2cc1O | inconclusive: 23.9% |

Shown with tabs: 4 of the compounds above.
Structure (SMILES)	inhibition
COc1ccc2cc3cc(C(=O)NCCN4CCN(Cc5ccccc5)CC4)oc3nc2c1	inconclusive: 7.43%
O=C1S/C(=C\c2ccc(O)c([N+](=O)[O-])c2)C(=O)N1Cc1cccc([N+](=O)[O-])c1	inconclusive: 27.9%
O=C(NC1CCCC1)C(c1ccccc1F)N(C(=O)c1ccco1)C1CCCC1 (stereo not given)	active: 25%
O=C(NC(Cc1ccccc1)c1nc2ccccc2[nH]1)C1CC(=O)N(c2ccc3c(c2)OCCO3)C1 (stereo not given)	active: 26%

Following part

| Structure (SMILES) | inhibition |
| --- | --- |
| Cc1cccc(C)c1OCC(=O)NCc1nnc(SCC(=O)NC2CCCCC2C)n1C (stereo not given) | active: 24.1% |
| CC1(C)CC(=O)C(C=Nc2ccc(O)c(N=CC3=C(O)CC(C)(C)CC3=O)c2)=C(O)C1 | inconclusive: 24.3% |
| N=c1c(C(=O)NCc2ccccc2)cc2c(=O)n3ccccc3nc2n1Cc1ccco1 | inconclusive: 23.7% |
| C=C1CCN([C@@H](C)C(=O)NCc2ccc(OC)cc2)S(=O)(=O)c2ccccc21 | inactive: 6.29% |
| O=C(O)c1cc(-c2ccccc2)nc2nc(N3CCCCC3)sc12 | inconclusive: 24.7% |
| CCCc1ccc(-c2cc(NC(=O)CSc3nnc(N)s3)n(-c3ccccc3)n2)cc1 | inconclusive: 25.9% |
| O=C(COc1ccc(S(=O)(=O)NC2CCCCC2)cc1)NCc1cccnc1 | inconclusive: 25.9% |
| Oc1ccc(NC(=S)N=Nc2c(O)[nH]c3ccccc23)cc1 | inconclusive: 27.1% |
| O=c1c(O)c(-c2ccc(O)cc2O)oc2cc(O)cc(O)c12 | inconclusive: 54.6% |
| CS(=O)(=O)N1CCC(C(=O)Nc2ccc(F)cc2F)CC1 | inactive: -3.46% |
| Cc1ccc(Cn2c(SCCN3CCOCC3)nc3c2c(=O)n(C)c(=O)n3C)cc1 | active: 23.8% |
| CCOC(=O)C(C)c1nn(C)c(=O)c2ccccc12 (stereo not given) | inconclusive: 23.8% |
| CC(C)C(=O)Nc1ccnc(-c2cccnc2)n1 | inconclusive: 34% |
| CCOC(=O)c1cc2n(c1/N=C/N(C)C)-c1ccccc1C2=O | inconclusive: 25.4% |
| Cn1cccc1/C=C1/SC(=S)N(CC(=O)O)C1=O | inconclusive: 24.6% |
| O=C1CCC(=O)N1N1C(=O)C2C3c4ccccc4C(c4ccccc43)C2C1=O (stereo not given) | inactive: 0.65% |
| COc1ccc2[nH]c(=O)c(CN(CC3CCCO3)C(=O)Nc3ccccc3)cc2c1 (stereo not given) | inconclusive: 18.6% |
| Cc1cc(C)nc(NC(=O)/C=C/c2ccc3c(c2)OCO3)c1 | inactive: 4.5% |
| CCOC(=O)c1[nH]c(C=O)c(C(=O)OCC)c1C | inconclusive: 27.7% |
| CC(C)(C)NC(=O)NC(=O)COc1ccccn1 | inconclusive: 25% |
| Cc1ccc(S(=O)(=O)N(C)C)cc1NC(=O)COC(=O)c1sc2cc(Cl)ccc2c1Cl | inactive: -0.59% |
| O=C(O)CSc1nnc(Cn2c(=O)sc3ccccc32)n1-c1cccc(Cl)c1 | inconclusive: 51.1% |
| COC(=O)[C@@H](NC(=O)NC(C)CCc1ccccc1)C(C)C (stereo not given in full) | active: 23.4% |

| Structure (SMILES) | inhibition |
| --- | --- |
| Cc1ccc(-c2c(C#N)c(N)n3c(nc4ccccc43)c2C#N)cc1 | active: 25.5% |
| CC(NC(=O)CN(C1CCCCC1)S(C)(=O)=O)c1ccccc1 (stereo not given) | inactive: 2.9% |
| CC(C)NS(=O)(=O)c1ccc(CCC(=O)NCc2ccncc2)cc1 | inconclusive: 26.5% |
| O=Cc1c(OCc2ccccc2)ccc2ccccc12 | inactive: 16.3% |
| CC(C)CNC(=O)C(=O)NN=C1CCCCCC1 | inactive: 2.51% |
| COc1cccc(-c2nc(CCl)cs2)c1 | inconclusive: 27.3% |
| COc1cc(/C=C(\C#N)C(N)=O)ccc1OS(=O)(=O)c1ccc(C)cc1 | inactive: 12.9% |
| CSc1cc(-c2ccc(Cl)cc2)[nH]c(=O)c1C#N | inactive: 0.84% |
| CC1CCN(CCCNC(=O)c2coc3nc4ccccc4nc23)CC1 | inconclusive: 11.4% |
| O=C(NC(=S)NNS(=O)(=O)c1ccc(Cl)cc1)c1cccnc1 | inconclusive: 24.1% |
| O=c1c(O)cccc2cc(O)c(O)c(O)c12 | inconclusive: 24.8% |
| C/C(CC(=O)N1CCN(C=O)CC1)=N\NC(=O)c1cc2ccccc2cc1O | inconclusive: 25.1% |
| COc1cc(/C=N\NC(=O)c2sc(N)nc2C)cc(OC)c1OC | inactive: 8.26% |
| CCN1CCN(Cc2oc(CO)cc(=O)c2O)CC1 | inactive: 0.53% |
| Cc1ccccc1OCC(=O)NNC(=S)NC(=O)c1ccco1 | inconclusive: 23.6% |
| COc1ccccc1C1C=C(c2ccc(Cl)cc2)Nc2nc(NS(C)(=O)=O)nn21 (stereo not given) | inconclusive: 24.7% |
| Cc1cc(=O)[nH]c2c(C)c(N)ccc12 | inconclusive: 24% |
| Cc1ccc(S(=O)(=O)CCC(=O)Nc2nc3c(s2)CCCC3)cc1 | inconclusive: 28.2% |
| O=C(NC1=NCCS1)c1ccc(-c2ccc(Cl)cc2)o1 | inconclusive: 24.7% |
| OC(c1cccs1)c1nccc2ccccc12 (stereo not given) | inactive: -3.89% |
| CCOC(=O)NC(=O)/C(C=Nc1ccc(Cl)cc1)=C(\C)O | inactive: 10.5% |
| O=C(NNS(=O)(=O)c1ccc(Cl)cc1)c1cc(-c2ccccc2)n[nH]1 | inconclusive: 25.8% |
| COCCN1C=C(C(=O)OC)C(c2cc(Br)c(OC)c(OC)c2)C(C(=O)OC)=C1 | inconclusive: 31.1% |

| Structure (SMILES) | inhibition |
| --- | --- |
| O=c1oc2c(CN3CCCCC3)c(O)ccc2c2c1CCCCC2 | active: 42.2% |
| c1ccn2c(SCc3ccc4c(c3)OCO4)nnc2c1 | inactive: 3.07% |
| CC(=O)Nc1ccc(S(=O)(=O)Nc2nc3ccccc3nc2Nc2ccc(O)cc2)cc1 | inactive: 29.4% |
| CCOC(=O)C1=C(O)/C(=C/c2cc(OC)c(O)c(OC)c2)SC1=Nc1ccc(OC)cc1 | inconclusive: 26.9% |
| CCc1nc(NCCO)c(C#N)c2c1CSC(C)(C)C2 | inconclusive: 23.3% |
| O=C(c1ccc2c(c1)OCO2)C1CCCN(C2CCN(CCc3ccccc3)CC2)C1 (stereo not given) | inactive: 6.4% |
| O=C(N/N=C/c1ccc(O)cc1)c1cc[n+](Cc2ccccc2)cc1 | inconclusive: 23.6% |
| CN(C)S(=O)(=O)c1ccc2nnn(OCC(=O)NC34CC5CC(CC(C5)C3)C4)c2c1 | inconclusive: 25.1% |
| CC1=NN(c2ccc(F)cc2)C(=O)C1C(c1cccc(O)c1)c1c(C)[nH]n(-c2ccc(F)cc2)c1=O (stereo not given) | inconclusive: 24.4% |
| COc1ccc(/C=N/NC(=O)c2ccccc2O)cc1Cn1cc(Cl)cn1 | inconclusive: 28.4% |
| COc1cccc(-n2c(SCC(=O)NC3CCCCC3)nc3n[nH]c(C)c3c2=N)c1 | active: 57.3% |
| O=C(O)c1ccccc1-c1ccccc1C(=O)Nc1ccc2c(c1)[nH]c(=O)c1ccccc12 | inconclusive: 83% |
| CSc1nnc(-c2ccc(NC(=O)CCc3ccccc3)cc2)n1C | inconclusive: 26% |
| CC(=O)Nc1ccc2nc(-c3ccncc3)[nH]c2c1 | inactive: 10.3% |
| COc1cc(/C=N/NC(=O)c2ccncc2)ccc1OC(=O)c1ccc([N+](=O)[O-])cc1 | inconclusive: 25% |
| O=C(NC1CCCCC1)N1CCN(C(=O)c2ccco2)CC1 | inactive: -0.86% |
| Cc1[nH]c2ccccc2c1/C=C/c1cc[n+](C)cc1 | inconclusive: 23.6% |
| CCCCN(C)C1=Nc2cccc3cccc1c23 | active: 26.3% |
| COc1ccc(N2CCN(C(=O)c3ccc4c(c3)[nH]c(=S)n3c5ccccc5nc43)CC2)cc1 | inconclusive: 25.4% |
| Nc1cc(-c2ccccc2)nn1Cc1ccc(Cl)cc1 | active: 25.7% |
| COc1cccc(C(=O)NC2CCN(CC(=O)Nc3c(C)cc(C)cc3C)CC2)c1 | inconclusive: 25.5% |
